# From PubChem BioAssay AID720711 (National Center for Advancing Translational Sciences (NCATS), 2013)
# Chains of the proteins cited; added tags and fusions are not shown.
# UniProt Q8WZA2, whole entry, looked up: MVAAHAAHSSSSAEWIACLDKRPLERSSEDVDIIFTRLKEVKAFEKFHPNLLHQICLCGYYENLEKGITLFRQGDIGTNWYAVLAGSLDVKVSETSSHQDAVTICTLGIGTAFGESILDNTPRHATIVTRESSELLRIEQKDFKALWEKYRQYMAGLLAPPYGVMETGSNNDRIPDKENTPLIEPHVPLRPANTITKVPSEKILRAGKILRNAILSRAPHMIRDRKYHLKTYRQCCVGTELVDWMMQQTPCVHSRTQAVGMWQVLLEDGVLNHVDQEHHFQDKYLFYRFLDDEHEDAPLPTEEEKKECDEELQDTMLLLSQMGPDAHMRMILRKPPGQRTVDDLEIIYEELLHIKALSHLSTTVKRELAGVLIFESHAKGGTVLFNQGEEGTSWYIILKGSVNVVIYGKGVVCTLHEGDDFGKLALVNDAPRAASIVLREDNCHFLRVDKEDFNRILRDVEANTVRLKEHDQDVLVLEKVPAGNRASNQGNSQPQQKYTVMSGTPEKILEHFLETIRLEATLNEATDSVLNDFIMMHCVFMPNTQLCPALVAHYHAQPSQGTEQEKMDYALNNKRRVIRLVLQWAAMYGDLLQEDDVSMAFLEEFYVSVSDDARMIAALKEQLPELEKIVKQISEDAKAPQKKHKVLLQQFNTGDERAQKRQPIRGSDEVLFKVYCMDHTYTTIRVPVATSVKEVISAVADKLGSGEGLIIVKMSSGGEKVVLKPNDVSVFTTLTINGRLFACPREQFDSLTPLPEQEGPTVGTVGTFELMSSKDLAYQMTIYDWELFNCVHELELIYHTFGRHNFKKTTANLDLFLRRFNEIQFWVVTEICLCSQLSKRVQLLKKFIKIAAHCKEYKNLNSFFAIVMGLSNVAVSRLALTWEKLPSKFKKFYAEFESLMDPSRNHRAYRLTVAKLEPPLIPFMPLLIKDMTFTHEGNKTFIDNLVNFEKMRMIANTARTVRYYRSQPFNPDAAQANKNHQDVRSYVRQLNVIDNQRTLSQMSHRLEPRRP
# The whole screen tested about 360,000 compounds, of which about 290 (0.081%) were called active. Inconclusive means that the source gave no clear call. Such entries were picked first, then a sample of the others. Calls come from the whole dose curve; as a rule, active = well fitted activation curve with a large enough effect; inconclusive = small, poorly fitted or top-dose-only effect; inactive = no such curve, though single readings can be large or run the other way. Potencies beside an inconclusive call are fits to weak or partial responses and may not hold up.
# Biological target: Rap guanine nucleotide exchange factor 4 (Homo sapiens) (UniProt Q8WZA2)
# Assay: qHTS for Agonist of cAMP-regulated guanine nucleotide exchange factor 4 (EPAC2): primary screen; note: nearly all actives have a fitted effect of over 50% in size
# Details: biochemical qHTS; Potency: EPAC2 activation unless noted; activation: at 154 µM (top of the series), 100% = 6.5 mM cAMP response unless noted
# Method in brief: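 Fluorescence exchange assay: 100 nM EPAC2 with 250 nM RAP1B-BODIPY-GDP and 50 uM GDP; compounds tested as a concentration-titration series (qHTS). Loss of Rap1-bound BODIPY-GDP fluorescence read at 480/540 nm; data normalized to 6.5 mM cAMP.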
# Potency is the fitted concentration of half-maximal effect.
Compound,Potency,activation
CCN1CCc2c(sc(NC(=O)c3cc4ccccc4cc3OC)c2C(N)=O)C1,"inconclusive: 89.1 µM [activator, partial curve]",
CCCCCCCC(=O)N/N=C/c1cccnc1,inactive,
Cc1c(NC(=O)C(C)n2cc([N+](=O)[O-])cn2)c(=O)n(-c2ccccc2)n1C (centres undefined),"inconclusive: 35.5 µM [activator, single point]",
COc1ccc(CC(=O)O/N=C(\N)c2ccc(OC)cc2)cc1,inactive,
CCCCn1nc(C(=O)NCC2COc3ccccc3O2)c2ccccc2c1=O (centres undefined),inactive,
CC(=O)c1cc2c(cc1NC(=O)CCn1cccc1)OCO2,,"inconclusive: 128% [activator] [at 15.6 µM, 100% = 6.5 mM cAMP response]"
Cc1ccc2nc(NC(=O)CSc3nc(=O)n(CCCN(C)C)c4c3CCC4)sc2c1,"inconclusive: 112 µM [activator, partial curve]",
O=S(=O)(c1ccccc1)c1ncc(C(F)(F)F)cc1Cl,"inconclusive: 112 µM [activator, partial curve]",
N=C1C=CC(=C(c2ccc(N)cc2)c2ccc(N)cc2)C=C1,"inconclusive: 89.1 µM [activator, partial curve]",
Cc1[nH]c2ccccc2c1C1=CC(=O)C=CC1=O,inactive,
C=CCN1C(=O)c2cccc3c(N4CCCCC4)ccc(c23)C1=O,active: 100 µM,
Cc1ccc2c(c1)c(/C=C/c1cc[n+](C)cc1)c(C)n2C,"inconclusive: 100 µM [activator, partial curve]",
N=C1/C(=C\c2coc3ccccc3c2=O)C(=O)N=C2SC=CN12,active: 112 µM,
C=CCn1c(=O)[nH]c2nc3cc(N=CN(C)C)c(C)cc3nc2c1=O,"inconclusive: 112 µM [activator, single point]",
Cc1ccc(C(=O)CSc2nnc(-c3ccco3)n2C)cc1,inactive,
COc1ccc(CCNC(=O)CCC(=O)N2CCN(S(=O)(=O)c3ccccc3)CC2)cc1OC,inactive,
CSc1ncccc1C(=O)OCC(=O)N(C)c1c(N)n(Cc2ccccc2)c(=O)[nH]c1=O,,inconclusive: 3.29% [activator]
C[n+]1cc(C(=O)N2CCCCC2)ccc1/C=C/c1c[nH]c2ccccc12,"inconclusive: 89.1 µM [activator, partial curve]",
COc1ccc(Cn2nnnc2C(c2cccs2)N2CCOCC2)cc1 (centres undefined),"inconclusive: 7.94 µM [activator, partial curve]",
O=C1c2ccccc2C(=O)N1Nc1ccc([N+](=O)[O-])cc1[N+](=O)[O-],"inconclusive: 100 µM [activator, partial curve]",
CC1CC1C(=O)OCC(=O)NCc1ccc(Cl)cc1Cl (centres undefined),"inconclusive: 50.1 µM [activator, single point]",
NC(=O)CSCc1nc2ccccc2s1,,"inconclusive: 138% [activator] [at 15.6 µM, 100% = 6.5 mM cAMP response]"
CSc1cccc(NC(=O)c2sc3nc4n(c(=O)c3c2C)CCC4)c1,inactive,
Cc1cccc(C)c1-n1c(C)cc(/C=N\Nc2ccc([N+](=O)[O-])cn2)c1C,active: 3.98 µM,
Cc1c(Cc2ccccc2)c(=O)oc2c(O)c(O)ccc12,inactive,

# Individual results from the results shown:
# Value of O=S(=O)(c1ccccc1)c1ncc(C(F)(F)F)cc1Cl under Potency: inconclusive: 112 µM [activator, partial curve]
# Value of O=C1c2ccccc2C(=O)N1Nc1ccc([N+](=O)[O-])cc1[N+](=O)[O-] under Potency: inconclusive: 100 µM [activator, partial curve]
# Value of C[n+]1cc(C(=O)N2CCCCC2)ccc1/C=C/c1c[nH]c2ccccc12 under Potency: inconclusive: 89.1 µM [activator, partial curve]

# (next part)

Compound,Potency,activation
CN1CCC/C1=C/C=C1\SC(=S)NC1=O,active: 112 µM,
Cc1ccc(CN(C)C(=O)CN2C(=O)NC3(CCCc4ccccc43)C2=O)c(C)c1 (centres undefined),inactive,
COc1cccc(/C(O)=C/c2nc3ccc(C(=O)NCCc4cccc(C)c4)cc3[nH]c2=O)c1,active: 112 µM,
CCSc1nc2c(cnn2-c2ccccc2)c(=O)n1N,inactive,
Cc1cc(C)cc(OC(=O)CCN2C(=O)c3ccccc3C2=O)c1,inactive,
Cc1ccc(Cl)cc1NC(=S)NCCCSC1CCCCC1,"inconclusive: 31.6 µM [activator, partial curve, poor fit]",
Cc1c(N=C2NC(=O)C(CC(=O)Nc3ccccc3)S2)c(=O)n(-c2ccccc2)n1C (centres undefined),,"inconclusive: 446% [activator] [at 15.6 µM, 100% = 6.5 mM cAMP response]"
O=C(c1ccco1)N1CCc2[nH]nc(-c3ccc(Cl)cc3)c2C1,"inconclusive: 126 µM [activator, single point]",
CCCN1CNc2c(c(=O)[nH]c(=S)n2-c2ccc(Cl)cc2)C1,"inconclusive: 4.47 µM [activator, full curve, poor fit]",
Cc1ccc(NC(=S)NNC(=S)Nc2ccc(C)cc2C)cc1,inactive,
CCN(CC)CC(O)CN1C(=O)NC(C)(C)C1=O (centres undefined),inactive,
CCc1cc2c(=O)oc(-c3ccccc3F)nc2s1,"inconclusive: 100 µM [activator, partial curve]",
CC1CN/C(=C\C(=O)c2ccccc2)C(=O)N1 (centres undefined),,"inconclusive: 143% [activator] [at 15.6 µM, 100% = 6.5 mM cAMP response]"
Cc1onc(-c2c(F)cccc2Cl)c1C(=O)Nc1nc2ccccc2[nH]1,"inconclusive: 112 µM [activator, partial curve]",
O=c1oc2ccccc2nc1/C=C(O)/C=C\c1ccccc1,active: 63.1 µM,
COC(=O)c1cc(C)nc2c1C(=O)C(=O)C=C2N1CCOCC1,"inconclusive: 8.91 µM [activator, full curve, poor fit]",
O=[N+]([O-])c1cc(C(F)(F)F)cc([N+](=O)[O-])c1Sc1n[nH]c(C(F)(F)F)n1,"inconclusive: 79.4 µM [activator, partial curve]",
CC(=O)Nc1ccc(Nc2c3c4c(cccc4n(C)c2=O)C(=O)c2ccccc2-3)cc1,active: 112 µM,
NC(=O)c1ccc(NC(=O)CSc2nnc(C3CCCCC3)n2N)cc1,inactive,
COc1ccc(-c2csc(C3=C(O)CN(CCCN4CCCC4=O)C3=N)n2)cc1OC,inactive,
CC(C)n1cc(/C=C/c2cc[n+](C)cc2)c2ccccc21,"inconclusive: 100 µM [activator, partial curve]",
CSC1=NSC2=NC(=O)/C(=C/c3coc4ccccc4c3=O)C(=N)N12,active: 89.1 µM,
COc1cccc(/C=C/C(=O)OCC(=O)NC2CCCC2)c1,"inconclusive: 50.1 µM [activator, single point]",
Cc1ccc(/C(C#N)=C\c2ccc(N3CCOCC3)o2)cc1,"inconclusive: 112 µM [activator, single point]",
Cc1ccc(Cl)c2c(N=Nc3ccccc3)c(O)[nH]c12,"inconclusive: 15.8 µM [activator, full curve]",

Compound,Potency,activation
Cc1ccc(NC(=S)NC2CCCC2)cc1,,"inconclusive: 32% [activator] [at 15.6 µM, 100% = 6.5 mM cAMP response]"
O=C(NCc1ccc(F)cc1Cl)C1CC(=O)N(C2CCCCCCC2)C1 (centres undefined),inactive,
CC1(C(=O)Nc2ccc3c(c2)OCCO3)CCN1Cc1ccc(-c2ccccn2)cc1 (centres undefined),inactive,
COc1ccc2c(C)c(C(=O)N3CCN(Cc4ccccc4)CC3)oc2c1,"inconclusive: 100 µM [activator, partial curve]",
Cc1ccc2[nH]cc(/C=C/c3cc[n+](C)cc3)c2c1,"inconclusive: 89.1 µM [activator, partial curve]",
CC(O)(c1ccccc1)c1nc(-c2cccc(C(=O)O)c2)cs1 (centres undefined),"inconclusive: 50.1 µM [activator, single point]",
Cc1ccc(C(=O)C(c2ccccc2)N2Cc3ccccc3C2=N)cc1 (centres undefined),inactive,
CC1Cc2nc(SCC(N)=O)n(C)c(=O)c2S1 (centres undefined),,inconclusive: 16.1% [activator]
CS(=O)(=O)N1CCc2cc(C(=O)O)ccc21,"inconclusive: 100 µM [activator, partial curve]",
Clc1ccccc1/C=C/c1nc(-c2cccnc2)no1,inactive,
C#CCOCCOCCOCCNc1nc(N2CCN(C(=O)CCCCCCCCCCNC(=O)Cn3cc(CCCCCN)nn3)CC2)nc(N2CCN(C(=O)CCCCCCCCCCNC(=O)[C@H](CO)n3cc(CCCSC)nn3)CC2)n1,"inconclusive: 70.8 µM [activator, partial curve]",
COc1ccc(OC)c(NC(=O)N2CCCC(CNS(=O)(=O)c3cccs3)C2)c1 (centres undefined),inactive,
Cc1cc(Cl)ccc1OC(C)C(=O)Nc1cccc(S(=O)(=O)N2CCOCC2)c1 (centres undefined),"inconclusive: 28.2 µM [activator, partial curve]",
O=C1c2ccccc2C(Nc2ccc(S(=O)(=O)N3CCCCC3)cc2)N1c1ccccn1 (centres undefined),"inconclusive: 100 µM [activator, partial curve, poor fit]",
O=C(OCCN1C(=O)c2cccc3c(N4CCOCC4)ccc(c23)C1=O)c1ccccc1Cl,"inconclusive: 100 µM [activator, single point]",
O=C1c2cccc3c(O)ccc(c23)C(=O)N1c1ccc(Cl)cc1,active: 112 µM,
O=C1C(=C(c2ccccc2)c2ccccc2)Nc2ccccc21,active: 6.31 µM,
CSc1ccccc1C(=O)Nc1ccccc1C,inactive,
CCN(CC)c1ccc(/C=C(\C#N)C(=O)c2ccc(Br)cc2)cc1,active: 100 µM,
COc1ccc2c(c1)CC/C(=C\Nc1ccc3c(c1)OCO3)C2=O,"inconclusive: 100 µM [activator, partial curve]",
O=C1C2C3C=CC(C3)C2C(=O)N1c1ncn[nH]1 (centres undefined),inactive,
c1ccc(-c2cnn3c(-c4ccccc4)c(-c4ccccc4)nc3n2)cc1,active: 89.1 µM,
COCCCn1cc(CN2CC(N3CCN(Cc4cccc(C)c4)CC3)CS2(=O)=O)nn1 (centres undefined),inactive,
O=C(CCCC(=O)Nc1cccnc1)Nc1cccnc1,"inconclusive: 112 µM [activator, single point]",
